The experiment concerns the target mouse VEGFR2 (mouse) (UniProt P35918). Kind of experiment: ELISA, mouse VEGFR2 coated. Background: In an ELISA, binding on a coated surface is turned into a signal by an enzyme label.

The chains behind the UniProt entries cited, without tags or fusion partners. Where a name states a change or a piece, a line headed by the entry shows the natural chain unless it says otherwise.
UniProt P35918: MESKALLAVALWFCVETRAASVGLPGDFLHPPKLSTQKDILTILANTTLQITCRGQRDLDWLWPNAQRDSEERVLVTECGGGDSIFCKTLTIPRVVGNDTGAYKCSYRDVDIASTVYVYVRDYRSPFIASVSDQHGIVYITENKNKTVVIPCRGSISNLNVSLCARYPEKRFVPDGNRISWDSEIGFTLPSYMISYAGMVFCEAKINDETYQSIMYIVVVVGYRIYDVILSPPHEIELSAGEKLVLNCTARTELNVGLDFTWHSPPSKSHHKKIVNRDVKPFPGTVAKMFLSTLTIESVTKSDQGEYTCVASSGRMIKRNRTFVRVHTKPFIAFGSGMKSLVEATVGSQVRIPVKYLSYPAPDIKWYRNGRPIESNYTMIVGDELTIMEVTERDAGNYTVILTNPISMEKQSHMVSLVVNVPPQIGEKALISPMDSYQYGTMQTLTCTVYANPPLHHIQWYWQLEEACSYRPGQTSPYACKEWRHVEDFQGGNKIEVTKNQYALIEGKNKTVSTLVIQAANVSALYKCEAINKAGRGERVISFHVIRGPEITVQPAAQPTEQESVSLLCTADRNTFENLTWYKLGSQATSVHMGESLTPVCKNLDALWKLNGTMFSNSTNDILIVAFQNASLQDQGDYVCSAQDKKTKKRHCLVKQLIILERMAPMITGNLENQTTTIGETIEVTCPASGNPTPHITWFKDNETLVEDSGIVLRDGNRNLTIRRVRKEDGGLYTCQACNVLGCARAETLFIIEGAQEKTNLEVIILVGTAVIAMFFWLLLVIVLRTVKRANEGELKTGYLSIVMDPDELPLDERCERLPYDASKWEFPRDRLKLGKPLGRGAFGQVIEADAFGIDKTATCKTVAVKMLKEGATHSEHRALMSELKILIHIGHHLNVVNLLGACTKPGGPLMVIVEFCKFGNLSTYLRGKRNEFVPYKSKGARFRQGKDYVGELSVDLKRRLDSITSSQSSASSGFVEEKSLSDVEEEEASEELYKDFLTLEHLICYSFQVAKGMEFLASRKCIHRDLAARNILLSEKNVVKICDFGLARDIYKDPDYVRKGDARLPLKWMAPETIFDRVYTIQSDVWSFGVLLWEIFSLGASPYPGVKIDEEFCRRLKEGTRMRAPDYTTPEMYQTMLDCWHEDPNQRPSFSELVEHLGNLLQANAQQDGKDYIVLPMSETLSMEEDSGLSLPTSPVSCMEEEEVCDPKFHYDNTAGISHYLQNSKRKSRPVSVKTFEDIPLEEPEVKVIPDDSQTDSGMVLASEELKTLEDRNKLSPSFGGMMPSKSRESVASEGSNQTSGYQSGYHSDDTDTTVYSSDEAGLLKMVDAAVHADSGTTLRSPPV

These are yes or no findings as the source states them, for the method shown. Some binding calls cover weakened binding; strength is not graded here. Tags and fused reporters may be left off the sequences shown.

B1: chimeric-DC101 (anti-mouse VEGFR2 antibody DC101 with human IgG1 Fc) (antibody, V domains shown)
VH: EVQLVETGGGLVQPGNSLKLSCATSGFIFSTTWMNWIRQTPGKRLEWLAQIEDKSNNYFISYSESVKGRFTISRDDSKSSVYLQMNNLKEEDTAIYYCSWKYRSNYYFDYWGQGVMVTVSS
VL: DIVLTQSPALAVSLEQRATISCKTSQNVDYYGISYLHWYQQKPGQQPKLLIYEGSNLASGIPARFSGSGSGTDFTLTIDPVEADDIVTYYCQQSKDYPYTFGAGTKLELKR
On to B1, for which the binding result is “binds”.

The values above are taken from patent US20240209099A1.
